Reference: the supplement of paper PMC10849652
This is one part of the list. Residues, ends and D or L forms follow the SMILES beside them. *: point of attachment. Cbz = O=C(OCc1ccccc1)*

The chains behind the UniProt entries cited, without tags or fusion partners. Where a name states a change or a piece, a line headed by the entry shows the natural chain unless it says otherwise.
UniProt P78509: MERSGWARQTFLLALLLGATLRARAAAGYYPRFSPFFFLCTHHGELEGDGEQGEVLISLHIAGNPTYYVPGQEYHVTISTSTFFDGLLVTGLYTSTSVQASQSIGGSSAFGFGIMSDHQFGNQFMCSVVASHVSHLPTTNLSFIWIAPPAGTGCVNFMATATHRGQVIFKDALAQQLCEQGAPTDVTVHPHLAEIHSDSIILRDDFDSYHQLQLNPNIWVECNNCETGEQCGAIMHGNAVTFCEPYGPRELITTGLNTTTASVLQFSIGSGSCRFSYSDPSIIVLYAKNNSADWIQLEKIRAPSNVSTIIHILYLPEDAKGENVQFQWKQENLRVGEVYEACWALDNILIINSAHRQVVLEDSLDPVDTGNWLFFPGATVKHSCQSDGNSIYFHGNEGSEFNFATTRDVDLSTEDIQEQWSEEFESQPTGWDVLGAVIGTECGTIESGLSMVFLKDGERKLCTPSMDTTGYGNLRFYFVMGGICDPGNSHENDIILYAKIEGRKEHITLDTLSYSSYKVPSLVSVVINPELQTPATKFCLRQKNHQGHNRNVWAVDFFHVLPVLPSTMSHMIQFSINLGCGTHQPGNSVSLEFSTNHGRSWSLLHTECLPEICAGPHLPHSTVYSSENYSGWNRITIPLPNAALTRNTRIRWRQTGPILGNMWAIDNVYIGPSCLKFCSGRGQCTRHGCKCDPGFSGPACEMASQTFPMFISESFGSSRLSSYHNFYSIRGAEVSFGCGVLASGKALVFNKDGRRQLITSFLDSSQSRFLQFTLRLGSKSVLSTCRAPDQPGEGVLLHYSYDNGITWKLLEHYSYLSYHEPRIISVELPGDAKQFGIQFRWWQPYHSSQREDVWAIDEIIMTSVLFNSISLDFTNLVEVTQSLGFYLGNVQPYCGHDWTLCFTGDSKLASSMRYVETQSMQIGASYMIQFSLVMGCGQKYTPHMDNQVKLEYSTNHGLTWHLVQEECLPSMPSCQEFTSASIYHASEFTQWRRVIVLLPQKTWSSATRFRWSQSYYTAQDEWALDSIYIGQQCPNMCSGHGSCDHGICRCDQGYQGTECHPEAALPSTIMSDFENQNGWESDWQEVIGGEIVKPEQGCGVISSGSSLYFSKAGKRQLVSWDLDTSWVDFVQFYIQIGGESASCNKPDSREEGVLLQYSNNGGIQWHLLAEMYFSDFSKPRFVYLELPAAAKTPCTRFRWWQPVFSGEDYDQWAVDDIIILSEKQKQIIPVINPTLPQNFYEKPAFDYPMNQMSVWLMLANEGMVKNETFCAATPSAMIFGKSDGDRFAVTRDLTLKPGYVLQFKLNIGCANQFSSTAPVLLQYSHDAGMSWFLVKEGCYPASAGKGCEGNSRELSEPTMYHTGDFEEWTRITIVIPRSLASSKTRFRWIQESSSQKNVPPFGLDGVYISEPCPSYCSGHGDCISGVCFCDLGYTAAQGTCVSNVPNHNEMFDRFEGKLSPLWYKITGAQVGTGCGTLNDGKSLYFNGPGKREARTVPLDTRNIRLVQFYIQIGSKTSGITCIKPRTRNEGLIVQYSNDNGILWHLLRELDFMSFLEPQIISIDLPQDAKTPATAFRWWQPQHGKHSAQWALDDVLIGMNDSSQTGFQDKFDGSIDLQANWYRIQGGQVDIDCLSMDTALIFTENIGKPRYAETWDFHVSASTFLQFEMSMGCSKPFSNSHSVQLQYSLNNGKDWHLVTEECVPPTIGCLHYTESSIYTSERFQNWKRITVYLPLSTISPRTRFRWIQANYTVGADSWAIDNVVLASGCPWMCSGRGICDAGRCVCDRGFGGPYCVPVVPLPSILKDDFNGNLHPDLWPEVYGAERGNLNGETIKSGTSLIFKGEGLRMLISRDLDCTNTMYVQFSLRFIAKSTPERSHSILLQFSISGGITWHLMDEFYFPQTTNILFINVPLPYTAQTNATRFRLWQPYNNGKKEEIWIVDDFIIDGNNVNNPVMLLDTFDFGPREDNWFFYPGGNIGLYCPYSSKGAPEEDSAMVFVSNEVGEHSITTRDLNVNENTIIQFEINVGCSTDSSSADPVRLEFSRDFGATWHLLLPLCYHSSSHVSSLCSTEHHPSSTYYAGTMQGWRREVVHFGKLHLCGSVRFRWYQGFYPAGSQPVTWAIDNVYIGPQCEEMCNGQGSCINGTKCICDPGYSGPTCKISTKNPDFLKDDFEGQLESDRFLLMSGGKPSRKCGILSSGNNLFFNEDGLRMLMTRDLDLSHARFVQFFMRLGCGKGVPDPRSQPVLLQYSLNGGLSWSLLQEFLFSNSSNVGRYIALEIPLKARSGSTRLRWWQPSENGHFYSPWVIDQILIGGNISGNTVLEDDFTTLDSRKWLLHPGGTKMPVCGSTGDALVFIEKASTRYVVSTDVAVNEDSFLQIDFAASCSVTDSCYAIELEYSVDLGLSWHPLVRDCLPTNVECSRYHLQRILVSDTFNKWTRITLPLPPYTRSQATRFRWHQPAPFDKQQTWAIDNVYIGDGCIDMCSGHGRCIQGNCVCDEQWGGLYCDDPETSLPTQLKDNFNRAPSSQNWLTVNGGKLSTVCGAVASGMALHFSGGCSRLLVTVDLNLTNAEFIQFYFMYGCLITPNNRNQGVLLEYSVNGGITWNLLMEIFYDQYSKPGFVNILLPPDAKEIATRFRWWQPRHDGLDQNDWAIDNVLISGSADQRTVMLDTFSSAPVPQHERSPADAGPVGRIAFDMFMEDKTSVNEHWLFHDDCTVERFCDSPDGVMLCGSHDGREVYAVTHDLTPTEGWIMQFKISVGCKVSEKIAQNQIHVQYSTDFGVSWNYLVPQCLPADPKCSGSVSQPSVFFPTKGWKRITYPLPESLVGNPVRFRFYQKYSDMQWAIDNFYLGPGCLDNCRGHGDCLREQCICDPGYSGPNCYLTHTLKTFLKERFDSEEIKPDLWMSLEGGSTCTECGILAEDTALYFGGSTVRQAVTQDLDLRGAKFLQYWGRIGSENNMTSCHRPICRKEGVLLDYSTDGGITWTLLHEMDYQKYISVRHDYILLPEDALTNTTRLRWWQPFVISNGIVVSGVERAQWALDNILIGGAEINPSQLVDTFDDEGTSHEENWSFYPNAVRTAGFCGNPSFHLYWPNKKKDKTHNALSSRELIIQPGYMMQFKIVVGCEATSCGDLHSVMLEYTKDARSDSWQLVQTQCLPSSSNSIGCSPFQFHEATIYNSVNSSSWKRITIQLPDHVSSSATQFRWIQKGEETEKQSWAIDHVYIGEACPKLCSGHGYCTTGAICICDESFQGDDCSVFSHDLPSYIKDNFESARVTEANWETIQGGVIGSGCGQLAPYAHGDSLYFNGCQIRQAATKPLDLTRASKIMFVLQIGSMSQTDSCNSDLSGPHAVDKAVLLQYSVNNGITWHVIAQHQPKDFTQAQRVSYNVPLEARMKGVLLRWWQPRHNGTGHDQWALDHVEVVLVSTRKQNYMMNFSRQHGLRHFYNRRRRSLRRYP
UniProt Q5XPI4: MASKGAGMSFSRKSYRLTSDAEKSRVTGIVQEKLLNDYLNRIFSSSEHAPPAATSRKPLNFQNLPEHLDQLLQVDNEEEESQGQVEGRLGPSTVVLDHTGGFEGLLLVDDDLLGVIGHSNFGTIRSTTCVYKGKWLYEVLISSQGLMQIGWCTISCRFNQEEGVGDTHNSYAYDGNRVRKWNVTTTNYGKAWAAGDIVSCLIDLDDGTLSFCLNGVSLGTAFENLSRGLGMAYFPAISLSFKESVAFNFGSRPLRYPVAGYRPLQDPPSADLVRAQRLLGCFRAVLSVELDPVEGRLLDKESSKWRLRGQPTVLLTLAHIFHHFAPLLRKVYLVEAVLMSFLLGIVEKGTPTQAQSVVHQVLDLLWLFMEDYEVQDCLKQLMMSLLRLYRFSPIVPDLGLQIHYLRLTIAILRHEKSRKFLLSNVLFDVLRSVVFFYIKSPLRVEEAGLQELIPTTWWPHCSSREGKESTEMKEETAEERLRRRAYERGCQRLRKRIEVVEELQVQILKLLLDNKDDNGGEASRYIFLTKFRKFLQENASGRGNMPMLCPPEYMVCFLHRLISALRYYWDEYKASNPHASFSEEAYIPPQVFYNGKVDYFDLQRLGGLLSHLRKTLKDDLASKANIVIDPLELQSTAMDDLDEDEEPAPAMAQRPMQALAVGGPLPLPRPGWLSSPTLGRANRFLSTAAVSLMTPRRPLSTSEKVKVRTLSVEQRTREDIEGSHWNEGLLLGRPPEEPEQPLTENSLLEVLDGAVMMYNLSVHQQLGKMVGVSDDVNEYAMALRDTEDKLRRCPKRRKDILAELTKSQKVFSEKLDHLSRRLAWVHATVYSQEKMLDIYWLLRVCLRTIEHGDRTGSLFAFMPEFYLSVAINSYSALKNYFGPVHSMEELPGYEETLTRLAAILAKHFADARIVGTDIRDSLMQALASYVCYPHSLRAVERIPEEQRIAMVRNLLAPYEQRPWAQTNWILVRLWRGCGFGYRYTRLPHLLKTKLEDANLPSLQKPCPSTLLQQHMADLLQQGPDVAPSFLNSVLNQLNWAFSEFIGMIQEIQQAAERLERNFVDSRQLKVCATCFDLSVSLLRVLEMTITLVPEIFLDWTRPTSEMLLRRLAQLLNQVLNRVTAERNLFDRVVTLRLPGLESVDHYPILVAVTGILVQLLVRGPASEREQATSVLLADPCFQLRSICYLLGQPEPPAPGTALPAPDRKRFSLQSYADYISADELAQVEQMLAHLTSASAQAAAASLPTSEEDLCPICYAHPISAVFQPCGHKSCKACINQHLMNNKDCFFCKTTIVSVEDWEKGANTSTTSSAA
UniProt Q8NC42: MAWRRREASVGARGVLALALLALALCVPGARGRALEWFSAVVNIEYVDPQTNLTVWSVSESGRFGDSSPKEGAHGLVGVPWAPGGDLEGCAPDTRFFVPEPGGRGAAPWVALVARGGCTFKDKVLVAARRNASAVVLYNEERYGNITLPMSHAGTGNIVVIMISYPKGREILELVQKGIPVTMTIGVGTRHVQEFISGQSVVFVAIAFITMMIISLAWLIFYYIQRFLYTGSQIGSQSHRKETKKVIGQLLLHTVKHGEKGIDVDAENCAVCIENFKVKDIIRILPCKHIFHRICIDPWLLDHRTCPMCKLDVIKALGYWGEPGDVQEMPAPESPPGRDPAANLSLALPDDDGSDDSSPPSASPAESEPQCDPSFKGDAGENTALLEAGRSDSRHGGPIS
UniProt Q9Y508: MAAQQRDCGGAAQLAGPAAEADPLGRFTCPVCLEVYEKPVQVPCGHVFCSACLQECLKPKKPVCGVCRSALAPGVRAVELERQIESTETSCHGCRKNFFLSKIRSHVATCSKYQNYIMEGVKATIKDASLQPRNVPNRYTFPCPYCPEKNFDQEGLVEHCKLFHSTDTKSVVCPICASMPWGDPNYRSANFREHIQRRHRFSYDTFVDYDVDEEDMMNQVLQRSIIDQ
UniProt Q9BQY4: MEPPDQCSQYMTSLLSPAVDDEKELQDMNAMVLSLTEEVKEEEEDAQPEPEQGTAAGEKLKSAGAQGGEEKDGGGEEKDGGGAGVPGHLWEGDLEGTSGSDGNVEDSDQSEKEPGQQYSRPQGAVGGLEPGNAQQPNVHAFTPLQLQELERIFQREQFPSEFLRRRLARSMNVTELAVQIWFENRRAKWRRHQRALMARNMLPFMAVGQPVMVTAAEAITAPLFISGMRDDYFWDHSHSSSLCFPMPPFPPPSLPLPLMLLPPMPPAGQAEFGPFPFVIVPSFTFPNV
UniProt Q9Y3B8: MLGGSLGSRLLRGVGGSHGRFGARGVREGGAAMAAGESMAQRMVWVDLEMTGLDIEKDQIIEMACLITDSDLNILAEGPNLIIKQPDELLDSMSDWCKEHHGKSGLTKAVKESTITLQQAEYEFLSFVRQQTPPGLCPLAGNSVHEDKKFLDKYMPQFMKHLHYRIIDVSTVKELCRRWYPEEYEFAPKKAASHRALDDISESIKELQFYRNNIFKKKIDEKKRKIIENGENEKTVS
UniProt Q9P0P0: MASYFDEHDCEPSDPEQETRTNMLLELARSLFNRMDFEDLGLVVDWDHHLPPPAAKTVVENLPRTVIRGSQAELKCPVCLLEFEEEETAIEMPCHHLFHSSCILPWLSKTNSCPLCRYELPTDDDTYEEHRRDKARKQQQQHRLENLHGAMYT
UniProt Q86VR2, whole entry, looked up: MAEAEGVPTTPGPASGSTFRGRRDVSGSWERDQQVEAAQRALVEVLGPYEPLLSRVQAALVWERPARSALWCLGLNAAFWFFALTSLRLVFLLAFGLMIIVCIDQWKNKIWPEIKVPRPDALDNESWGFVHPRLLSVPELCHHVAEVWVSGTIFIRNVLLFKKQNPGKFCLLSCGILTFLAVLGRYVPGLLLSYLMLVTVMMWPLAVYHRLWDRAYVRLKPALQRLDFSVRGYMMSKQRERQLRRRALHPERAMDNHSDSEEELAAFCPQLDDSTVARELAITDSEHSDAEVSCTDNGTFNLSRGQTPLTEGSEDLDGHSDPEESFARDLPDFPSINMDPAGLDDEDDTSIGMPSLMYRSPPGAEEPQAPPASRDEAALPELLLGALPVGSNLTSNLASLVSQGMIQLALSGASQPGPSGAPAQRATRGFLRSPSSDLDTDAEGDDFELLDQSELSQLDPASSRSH

Legend:
Test in all cases: log2 fold change, soluble protein after heating vs DMSO (PISA); higher = thermal stabilisation; K562 cells, 10 uM, 30 min; active = over 0.2 and 3.5 SD of the protein, either way, in both replicates (recomputed)
IRAK-1-4 Inhibitor I = compound: C1COCCN1CCN2C3=CC=CC=C3N=C2NC(=O)C4=CC(=CC=C4)[N+](=O)[O-] [IRAK-1-4 Inhibitor I]
In short: (§1)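 K562 cells at 2×10^6 cells/mL were exposed to 10 μM compound for 30 min, then aliquots were heated for 3 min across 48°C-58°C, pooled, and extracted in PBS containing 0.5% NP-40 at 4°C. The supernatant after 21,000xg for 90 min was taken as soluble protein and measured by TMTpro 16plex LC-MS/MS with channel sums equalised. Thermal stability is reported relative to control samples, with values from duplicates. Fold changes are given on a log2 scale.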

ibrutinib = compound: C=CC(=O)N1CCC[C@@H](n2nc(-c3ccc(Oc4ccccc4)cc3)c3c(N)ncnc32)C1 [ibrutinib]
In short: as §1

[1] = compound: CC(=O)c1cnc2ccc(-c3cc(Cl)c(O)c(Cl)c3)nc2c1N[C@H]1CC[C@H](CN(C)C)CC1
In short: as §1

ralimetinib = compound: CC(C)(C)Cn1c(N)nc2ccc(-c3[nH]c(C(C)(C)C)nc3-c3ccc(F)cc3)nc21 [ralimetinib]
In short: as §1

[2] = compound: CC(C)(O)CC(=O)NCCn1ccc2ncnc(Nc3ccc(Oc4cccc(C(F)(F)F)c4)c(Cl)c3)c21
In short: as §1

[3] = compound: CC(C)C1=C2N=C(C=C(N2N=C1)NCC3=CC=CC=C3)NCCCCCCN
In short: as §1

[4] = compound: CC(C)C[C@@H](C=O)NC(=O)[C@H](CC(C)C)NC(=O)[C@H](CC(C)C)NC(=O)OCc1ccccc1
In short: as §1

pinometostat = compound: CC(C)N(C[C@H]1O[C@@H](n2cnc3c(N)ncnc32)[C@H](O)[C@@H]1O)[C@H]1C[C@@H](CCc2nc3cc(C(C)(C)C)ccc3[nH]2)C1 [pinometostat]
In short: as §1

[5] = compound: CC1=C(C(CC(=O)N1)C2=CC=C(C=C2)C(F)(F)F)C(=O)NC3=C(C=C4C(=C3)C=NN4)F
In short: as §1

[6] = compound: CC1=C(C2=C(C=C1)C(=O)C3=CC=CC=C3N2CCCN)C
In short: as §1

[7] = compound: CC1=C(C=C(C=C1)NC(=O)C2=CC(=CC=C2)C(C)(C)C#N)NC3=CC4=C(C=C3)N=CN(C4=O)C
In short: as §1

[8] = compound: CC1=C(C=C(C=C1)NC(=O)C2=CC(=CC=C2)N(C)C)NC(=O)C3=CC=C(C=C3)O
In short: as §1

[9] = compound: CC1=CC=C(C=C1)SC2=C3C=C(SC3=CN=C2)C(=O)N
In short: as §1

[10] = compound: CC1=NC(=CC=C1)C2=C(N=C(N2)C(C)(C)C)C3=CC4=NC=CN=C4C=C3
In short: as §1

Nexturastat A = compound: CCCCN(Cc1ccc(C(=O)NO)cc1)C(=O)Nc1ccccc1 [Nexturastat A]
In short: as §1

vemurafenib = compound: CCCS(=O)(=O)Nc1ccc(F)c(C(=O)c2c[nH]c3ncc(-c4ccc(Cl)cc4)cc23)c1F [vemurafenib]
In short: as §1

[11] = compound: CCCS(=O)(=O)Nc1ccc(F)c(C(=O)c2c[nH]c3ncc(Cl)cc23)c1F
In short: as §1

[12] = compound: CCCc1cc(C)[nH]c(=O)c1CNC(=O)c1cc(-c2ccnc(N3CCN(C)CC3)c2)cc2c1cnn2C(C)C
In short: as §1

givinostat = compound: CCN(CC)Cc1ccc2cc(COC(=O)Nc3ccc(C(=O)NO)cc3)ccc2c1 [givinostat]
In short: as §1

barasertib = compound: CCN(CCCOc1ccc2c(Nc3cc(CC(=O)Nc4cccc(F)c4)[nH]n3)ncnc2c1)CCOP(=O)(O)O [barasertib]
In short: as §1

Measured: log2 fold change

RHOC (UniProt P08134)
inactive: IRAK-1-4 Inhibitor I 0.054 | ibrutinib 0.015 | [1] 0.006 | ralimetinib -0.032 | [2] 0.039 | [3] 0.077 | [4] -0.054 | pinometostat -0.032 | [5] 0.013 | [6] 0.054 | [7] 0 | [8] 0.031 | [9] 0.016 | [10] -0.001 | Nexturastat A -0.042 | vemurafenib 0 | [11] 0.01 | [12] -0.029 | givinostat -0.169 | barasertib -0.018

RELN (UniProt P78509)
inactive: IRAK-1-4 Inhibitor I -0.096 | ibrutinib 0.062 | [1] -0.038 | ralimetinib 0.059 | [2] 0.005 | [3] -0.027 | [4] 0.006 | pinometostat 0.016 | [5] -0.063 | [6] -0.062 | [7] -0.024 | [8] 0.019 | [9] -0.038 | [10] -0.077 | Nexturastat A 0.095 | vemurafenib -0.092 | [11] -0.045 | [12] -0.03 | givinostat -0.009 | barasertib 0.01

RNF123 isoform 2 (UniProt Q5XPI4)
inactive: IRAK-1-4 Inhibitor I -0.144 | ibrutinib -0.014 | [1] 0.009 | ralimetinib 0.003 | [2] -0.069 | [3] -0.122 | [4] 0.028 | pinometostat -0.032 | [5] -0.001 | [6] -0.023 | [7] -0.035 | [8] -0.036 | [9] 0.015 | [10] 0.175 | Nexturastat A -0.053 | vemurafenib 0.027 | [11] -0.006 | [12] 0.011 | givinostat 0.028 | barasertib 0.07

RNF149 (UniProt Q8NC42)
inactive: IRAK-1-4 Inhibitor I -0.04 | ibrutinib 0.088 | [1] -0.012 | ralimetinib 0.041 | [2] -0.043 | [3] 0.063 | [4] 0.041 | pinometostat 0 | [5] -0.007 | [6] 0.028 | [7] 0.019 | [8] 0.027 | [9] 0.025 | [10] -0.051 | Nexturastat A 0.081 | vemurafenib -0.028 | [11] 0 | [12] -0.154 | givinostat 0.024 | barasertib -0.06

RFT1 (UniProt Q96AA3)
inactive: IRAK-1-4 Inhibitor I 0.149 | ibrutinib 0.031 | [1] 0.031 | ralimetinib -0.049 | [2] 0.006 | [3] 0.08 | [4] -0.044 | pinometostat -0.042 | [5] -0.007 | [6] 0.014 | [7] 0.025 | [8] 0.04 | [9] -0.081 | [10] -0.066 | Nexturastat A -0.115 | vemurafenib -0.03 | [11] -0.12 | [12] -0.034 | givinostat -0.02 | barasertib 0.029

RNF114 (UniProt Q9Y508)
inactive: IRAK-1-4 Inhibitor I 0.025 | ibrutinib 0.027 | [1] 0 | ralimetinib -0.069 | [2] -0.027 | [3] 0.019 | [4] -0.033 | pinometostat -0.023 | [5] 0.09 | [6] -0.007 | [7] -0.005 | [8] -0.03 | [9] 0.013 | [10] 0.064 | Nexturastat A -0.036 | vemurafenib 0 | [11] 0.025 | [12] -0.059 | givinostat -0.004 | barasertib -0.014

RNF126 (UniProt Q9BV68)
inactive: IRAK-1-4 Inhibitor I 0.003 | ibrutinib 0.055 | [1] 0.067 | ralimetinib -0.026 | [2] 0.025 | [3] 0.046 | [4] 0.003 | pinometostat -0.041 | [5] 0.05 | [6] -0.037 | [7] 0.022 | [8] -0.041 | [9] 0.026 | [10] 0.059 | Nexturastat A -0.02 | vemurafenib -0.065 | [11] 0.059 | [12] 0.017 | givinostat -0.085 | barasertib -0.011

REPS1 (UniProt Q96D71)
inactive: IRAK-1-4 Inhibitor I 0.011 | ibrutinib 0.045 | [1] -0.117 | ralimetinib 0.154 | [2] -0.009 | [3] -0.083 | [4] 0.082 | pinometostat 0.221 | [5] -0.063 | [6] 0.001 | [7] 0.026 | [8] 0.054 | [9] 0.277 | [10] -0.046 | Nexturastat A 0.183 | vemurafenib -0.049 | [11] -0.28 | givinostat 0.031 | barasertib -0.154

RHOXF2 (UniProt Q9BQY4)
inactive: IRAK-1-4 Inhibitor I 0.012 | ibrutinib 0.003 | [1] 0.002 | ralimetinib 0.051 | [2] -0.031 | [3] -0.03 | [4] 0.027 | pinometostat -0.037 | [6] -0.007 | [7] -0.03 | [8] 0.034 | [9] -0.037 | [10] 0.021 | Nexturastat A 0.083 | vemurafenib -0.015 | [11] 0.012 | [12] -0.024 | givinostat 0.05 | barasertib 0.033

RCOR1 (UniProt Q9UKL0)
inactive: IRAK-1-4 Inhibitor I -0.037 | ibrutinib -0.036 | [1] -0.14 | ralimetinib 0.002 | [2] -0.08 | [3] 0.002 | [4] -0.034 | pinometostat 0.026 | [6] 0.021 | [7] -0.061 | [8] -0.089 | [9] 0.037 | [10] 0.021 | Nexturastat A 0.054 | vemurafenib 0.016 | [11] 0.029 | [12] -0.032 | givinostat 0.114 | barasertib 0.01

REXO2 (UniProt Q9Y3B8)
inactive: IRAK-1-4 Inhibitor I 0.036 | ibrutinib 0.011 | [1] 0.015 | ralimetinib -0.043 | [2] 0.03 | [3] 0.068 | [4] 0.016 | pinometostat -0.047 | [5] 0.008 | [6] 0.006 | [7] -0.002 | [8] 0.024 | [9] 0.02 | [10] 0.007 | Nexturastat A -0.062 | vemurafenib 0.024 | [11] 0.005 | [12] -0.062 | givinostat -0.034 | barasertib -0.031

RNF181 (UniProt Q9P0P0)
inactive: IRAK-1-4 Inhibitor I 0.034 | ibrutinib 0.023 | [1] -0.029 | ralimetinib -0.024 | [2] 0.01 | [3] 0.107 | [4] 0.069 | pinometostat -0.009 | [5] -0.001 | [6] 0.04 | [7] -0.054 | [8] 0.034 | [9] 0.046 | [10] -0.016 | Nexturastat A 0.013 | vemurafenib -0.017 | [11] -0.008 | [12] 0.036 | givinostat -0.057 | barasertib 0.037

Quoted from the listing (four entries):
RNF123 isoform 2 (UniProt Q5XPI4)
inactive: IRAK-1-4 Inhibitor I -0.144 | ibrutinib -0.014 | [1] 0.009 | ralimetinib 0.003 | [2] -0.069 | [3] -0.122 | [4] 0.028 | pinometostat -0.032 | [5] -0.001 | [6] -0.023 | [7] -0.035 | [8] -0.036 | [9] 0.015 | [10] 0.175 | Nexturastat A -0.053 | vemurafenib 0.027 | [11] -0.006 | [12] 0.011 | givinostat 0.028 | barasertib 0.07

RNF149 (UniProt Q8NC42)
inactive: IRAK-1-4 Inhibitor I -0.04 | ibrutinib 0.088 | [1] -0.012 | ralimetinib 0.041 | [2] -0.043 | [3] 0.063 | [4] 0.041 | pinometostat 0 | [5] -0.007 | [6] 0.028 | [7] 0.019 | [8] 0.027 | [9] 0.025 | [10] -0.051 | Nexturastat A 0.081 | vemurafenib -0.028 | [11] 0 | [12] -0.154 | givinostat 0.024 | barasertib -0.06

RFT1 (UniProt Q96AA3)
inactive: IRAK-1-4 Inhibitor I 0.149 | ibrutinib 0.031 | [1] 0.031 | ralimetinib -0.049 | [2] 0.006 | [3] 0.08 | [4] -0.044 | pinometostat -0.042 | [5] -0.007 | [6] 0.014 | [7] 0.025 | [8] 0.04 | [9] -0.081 | [10] -0.066 | Nexturastat A -0.115 | vemurafenib -0.03 | [11] -0.12 | [12] -0.034 | givinostat -0.02 | barasertib 0.029

RNF114 (UniProt Q9Y508)
inactive: IRAK-1-4 Inhibitor I 0.025 | ibrutinib 0.027 | [1] 0 | ralimetinib -0.069 | [2] -0.027 | [3] 0.019 | [4] -0.033 | pinometostat -0.023 | [5] 0.09 | [6] -0.007 | [7] -0.005 | [8] -0.03 | [9] 0.013 | [10] 0.064 | Nexturastat A -0.036 | vemurafenib 0 | [11] 0.025 | [12] -0.059 | givinostat -0.004 | barasertib -0.014

The listing continues.

RETREG3 (UniProt Q86VR2)
inactive: IRAK-1-4 Inhibitor I 0.117 | ibrutinib -0.002 | [1] -0.01 | ralimetinib -0.036 | [2] -0.04 | [3] -0.167 | [4] 0.007 | pinometostat 0.035 | [6] -0.016 | [7] -0.006 | [8] 0.014 | [9] 0.148 | [10] 0.13 | Nexturastat A 0.062 | vemurafenib 0.043 | [11] 0.055 | [12] -0.044 | givinostat -0.048 | barasertib 0.023

RBM39 (UniProt Q14498)
inactive: IRAK-1-4 Inhibitor I -0.193 | ibrutinib 0 | ralimetinib 0.044 | [2] -0.028 | [3] -0.267 | [4] 0.043 | pinometostat 0.042 | [6] 0.104 | [7] -0.035 | [8] 0 | [9] -0.011 | [10] 0.071 | Nexturastat A 0.043 | vemurafenib 0.084 | [11] 0.083 | [12] 0.034 | givinostat 0.131 | barasertib 0.012
active: [1] -0.497

RIOX2 (UniProt Q8IUF8)
inactive: IRAK-1-4 Inhibitor I -0.009 | ibrutinib -0.004 | [1] 0.049 | ralimetinib -0.035 | [2] -0.044 | [3] 0.023 | [4] -0.029 | pinometostat 0.009 | [5] -0.105 | [6] -0.045 | [7] -0.009 | [8] 0.036 | [9] 0.043 | [10] 0.152 | Nexturastat A 0.102 | vemurafenib -0.044 | [11] -0.037 | [12] -0.054 | givinostat -0.045 | barasertib -0.012

RFX5 (UniProt P48382)
inactive: IRAK-1-4 Inhibitor I 0.027 | ibrutinib 0.017 | [1] 0.105 | ralimetinib 0.147 | [2] 0.366 | [3] -0.076 | [4] 0.016 | pinometostat 0.066 | [5] -0.016 | [7] 0.04 | [8] 0.018 | [9] 0.073 | [10] 0.017 | Nexturastat A -0.067 | [11] -0.047 | givinostat 0.077 | barasertib 0.19

RINT1 (UniProt Q6NUQ1)
inactive: IRAK-1-4 Inhibitor I -0.123 | ibrutinib -0.208 | [1] 0 | ralimetinib 0.183 | [2] 0.103 | [3] -0.151 | [4] 0.028 | pinometostat 0.226 | [5] 0.059 | [6] 0.017 | [8] 0.016 | [9] -0.023 | [10] -0.062 | Nexturastat A 0.164 | vemurafenib -0.013 | [11] 0.068 | [12] 0.281 | givinostat 0.14 | barasertib -0.138
